# In the supplement of paper PMC8728848:
# Some of the results follow.
# How the values were obtained:
# Experiment in all cases: glycan array binding signal (z-score within array); higher = stronger binding
# Conditions in all cases: glycan notation: IUPAC condensed, linker removed
# [1] = biological target: GlcNAc(b1-2)Man(a1-3)[GlcNAc(b1-2)Man(a1-6)]Man(b1-4)GlcNAc(b1-4)GlcNAc
# In short: (§1)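 Glycan array binding is given as a within-array Z-score, which can be read as non-binding when negative. The arrays, 3228 of them, came from the Consortium for Functional Glycomics database and were retained only where the protein sequence was available. Z-scores were averaged across arrays of the same protein sequence at different concentrations or buffers and across linkers.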
# GlcNAc(b1-3)Gal = biological target: GlcNAc(b1-3)Gal
# In short: as §1
# [2] = biological target: GlcNAc(b1-3)Gal(b1-3)GalNAc
# In short: as §1
# GlcNAc(b1-3)Gal(b1-4)Glc = biological target: GlcNAc(b1-3)Gal(b1-4)Glc
# In short: as §1
# [3] = biological target: GlcNAc(b1-3)Gal(b1-4)GlcNAc
# In short: as §1
# [4] = biological target: GlcNAc(b1-3)Gal(b1-4)GlcNAc(b1-3)Gal(b1-4)GlcNAc
# In short: as §1
# GlcNAc(b1-3)GalNAc = biological target: GlcNAc(b1-3)GalNAc
# In short: as §1
# [5] = biological target: GlcNAc(b1-3)[GlcNAc(b1-4)][GlcNAc(b1-6)]GlcNAc
# In short: as §1
# [6] = biological target: GlcNAc(b1-3)[GlcNAc(b1-6)]Gal(b1-4)GlcNAc
# In short: as §1
# [7] = biological target: GlcNAc(b1-3)[GlcNAc(b1-6)]GlcNAc
# In short: as §1
# [8] = biological target: GlcNAc(b1-4)Gal(b1-4)GlcNAc
# In short: as §1
# [9] = biological target: GlcNAc(b1-4)GlcNAc(b1-4)GlcNAc
# In short: as §1
# [10] = biological target: GlcNAc(b1-4)GlcNAc(b1-4)GlcNAc(b1-4)GlcNAc(b1-4)GlcNAc
# In short: as §1
# [11] = biological target: GlcNAc(b1-4)GlcNAc(b1-4)GlcNAc(b1-4)GlcNAc(b1-4)GlcNAc(b1-4)GlcNAc
# In short: as §1
# [12] = biological target: GlcNAc(b1-4)[GlcNAc(b1-6)]GalNAc
# In short: as §1
# [13] = biological target: GlcNAc(b1-6)Gal(b1-4)GlcNAc
# In short: as §1
# GlcNAc(b1-6)GalNAc = biological target: GlcNAc(b1-6)GalNAc
# In short: as §1
# Kdn(a2-3)Gal(b1-3)GlcNAc = biological target: Kdn(a2-3)Gal(b1-3)GlcNAc
# In short: as §1
# Kdn(a2-3)Gal(b1-4)GlcNAc = biological target: Kdn(a2-3)Gal(b1-4)GlcNAc
# In short: as §1
# [14] = biological target: Man(a1-2)Man(a1-2)Man(a1-3)Man
# In short: as §1
# [15] = biological target: Man(a1-2)Man(a1-2)Man(a1-3)[Man(a1-2)Man(a1-3)[Man(a1-2)Man(a1-6)]Man(a1-6)]Man(b1-4)GlcNAc(b1-4)GlcNAc
# In short: as §1
# [16] = biological target: Man(a1-2)Man(a1-2)Man(a1-3)[Man(a1-2)Man(a1-6)[Man(a1-3)]Man(a1-6)]Man(b1-4)GlcNAc(b1-4)GlcNAc
# In short: as §1
# [17] = biological target: Man(a1-2)Man(a1-2)Man(a1-6)[Man(a1-3)]Man
# In short: as §1
# Man(a1-2)Man(a1-3)Man = biological target: Man(a1-2)Man(a1-3)Man
# In short: as §1
# [18] = biological target: Man(a1-2)Man(a1-3)[Man(a1-2)Man(a1-6)]Man
# In short: as §1
# [19] = biological target: Man(a1-2)Man(a1-3)[Man(a1-3)[Man(a1-6)]Man(a1-6)]Man(b1-4)GlcNAc(b1-4)GlcNAc
# In short: as §1
# [20] = biological target: Man(a1-2)Man(a1-3)[Man(a1-6)]Man(a1-6)[Man(a1-2)Man(a1-3)]Man(b1-4)GlcNAc(b1-4)GlcNAc
# In short: as §1
# Man(a1-3)[Man(a1-6)]Man = biological target: Man(a1-3)[Man(a1-6)]Man
# In short: as §1
# [21] = biological target: Man(a1-3)[Man(a1-6)]Man(a1-6)[Man(a1-3)]Man(b1-4)GlcNAc(b1-4)GlcNAc
# In short: as §1
# [22] = biological target: Man(a1-3)[Man(a1-6)]Man(b1-4)GlcNAc(b1-4)GlcNAc
# In short: as §1
# Man(b1-4)GlcNAc = biological target: Man(b1-4)GlcNAc
# In short: as §1
# Neu5Ac(a2-3)Gal = biological target: Neu5Ac(a2-3)Gal
# In short: as §1
# [23] = biological target: Neu5Ac(a2-3)Gal(b1-3)GalNAc
# In short: as §1
# [24] = biological target: Neu5Ac(a2-3)Gal(b1-3)GalNAc(b1-3)Gal(a1-4)Gal(b1-4)Glc
# In short: as §1
# [25] = biological target: Neu5Ac(a2-3)Gal(b1-3)GalNAc(b1-4)[Neu5Ac(a2-3)]Gal(b1-4)Glc
# In short: as §1
# [26] = biological target: Neu5Ac(a2-3)Gal(b1-3)GalNAc6S
# In short: as §1
# [27] = biological target: Neu5Ac(a2-3)Gal(b1-3)GlcNAc
# In short: as §1
# [28] = biological target: Neu5Ac(a2-3)Gal(b1-3)GlcNAc(b1-3)Gal(b1-3)GlcNAc
# In short: as §1
# [29] = biological target: Neu5Ac(a2-3)Gal(b1-3)GlcNAc(b1-3)Gal(b1-4)GlcNAc
# In short: as §1
# [30] = biological target: Neu5Ac(a2-3)Gal(b1-3)GlcNAc6S
# In short: as §1
# [31] = biological target: Neu5Ac(a2-3)Gal(b1-3)[Fuc(a1-4)]GlcNAc
# In short: as §1
# [32] = biological target: Neu5Ac(a2-3)Gal(b1-3)[Fuc(a1-4)]GlcNAc(b1-3)Gal(b1-4)[Fuc(a1-3)]GlcNAc
# In short: as §1
# [33] = biological target: Neu5Ac(a2-3)Gal(b1-3)[Neu5Ac(a2-3)Gal(b1-4)]GlcNAc
# In short: as §1
binder,measurement,setting,value
"MLTim-4 (Mus musculus), Q6U7R4 (protein) MSKGLLLLWLVTELWWLYLTPAASEDTIIGFLGQPVTLPCHYLSWSQSRNSMCWGKGSCPNSKCNAELLRTDGTRIISRKSTKYTLLGKVQFGEVSLTISNTNRGDSGVYCCRIEVPGWFNDVKKNVRLELRRAT",glycan array binding signal (z-score),[1],0.336
same,glycan array binding signal (z-score),GlcNAc(b1-3)Gal,-0.316
same,glycan array binding signal (z-score),[2],0.068
same,glycan array binding signal (z-score),GlcNAc(b1-3)Gal(b1-4)Glc,-0.475
same,glycan array binding signal (z-score),[3],0.557
same,glycan array binding signal (z-score),[4],-0.917
same,glycan array binding signal (z-score),GlcNAc(b1-3)GalNAc,-0.115
same,glycan array binding signal (z-score),[5],-0.523
same,glycan array binding signal (z-score),[6],-0.473
same,glycan array binding signal (z-score),[7],-0.206
same,glycan array binding signal (z-score),[8],-1.18
same,glycan array binding signal (z-score),[9],-0.436
same,glycan array binding signal (z-score),[10],-0.775
same,glycan array binding signal (z-score),[11],0.68
same,glycan array binding signal (z-score),[12],-0.498
same,glycan array binding signal (z-score),[13],-0.527
same,glycan array binding signal (z-score),GlcNAc(b1-6)GalNAc,0.065
same,glycan array binding signal (z-score),Kdn(a2-3)Gal(b1-3)GlcNAc,-0.308
same,glycan array binding signal (z-score),Kdn(a2-3)Gal(b1-4)GlcNAc,0.341
same,glycan array binding signal (z-score),[14],-0.221
same,glycan array binding signal (z-score),[15],0.08
same,glycan array binding signal (z-score),[16],-0.533
same,glycan array binding signal (z-score),[17],0.353
same,glycan array binding signal (z-score),Man(a1-2)Man(a1-3)Man,0.186
same,glycan array binding signal (z-score),[18],-0.233
same,glycan array binding signal (z-score),[19],-0.785
same,glycan array binding signal (z-score),[20],-0.137
same,glycan array binding signal (z-score),Man(a1-3)[Man(a1-6)]Man,-0.171
same,glycan array binding signal (z-score),[21],1.01
same,glycan array binding signal (z-score),[22],0.53
same,glycan array binding signal (z-score),Man(b1-4)GlcNAc,1.06
same,glycan array binding signal (z-score),Neu5Ac(a2-3)Gal,-0.334
same,glycan array binding signal (z-score),[23],-0.26
same,glycan array binding signal (z-score),[24],-0.523
same,glycan array binding signal (z-score),[25],-0.531
same,glycan array binding signal (z-score),[26],-0.456
same,glycan array binding signal (z-score),[27],-0.547
same,glycan array binding signal (z-score),[28],-1.04
same,glycan array binding signal (z-score),[29],-1.06
same,glycan array binding signal (z-score),[30],2.45
same,glycan array binding signal (z-score),[31],-0.948
same,glycan array binding signal (z-score),[32],-0.678
same,glycan array binding signal (z-score),[33],-0.946

# For reference, some entries already given:
binder,measurement,setting,value
"MLTim-4 (Mus musculus), Q6U7R4 (protein) MSKGLLLLWLVTELWWLYLTPAASEDTIIGFLGQPVTLPCHYLSWSQSRNSMCWGKGSCPNSKCNAELLRTDGTRIISRKSTKYTLLGKVQFGEVSLTISNTNRGDSGVYCCRIEVPGWFNDVKKNVRLELRRAT",glycan array binding signal (z-score),Man(b1-4)GlcNAc,1.06
same,glycan array binding signal (z-score),Neu5Ac(a2-3)Gal,-0.334
